{"source": "the supplement of paper PMC12009310", "note": "Where a name gives a salt, the structure may show the parent alone. ± gives the standard deviation of the averaged measurements. This is one part of the list. Baselines shift from plate to plate; read single values as rough.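 The cells are a mouse kidney inner medullary collecting duct line, silenced either for the ciliary gene Rpgrip1l or with a non-targeting control siRNA.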", "data": [{"tested_on": "mIMCD3", "test": "robust z score of cell number vs plate controls; higher = more cells (less cytotoxic)", "conditions": "10 µM; 48 h; siRNA: siRpgrip1l", "values": [{"smiles": "O=C(c1ccc(Nc2nccc(-c3cc4ccccc4s3)n2)cc1)N1CCC(N2CCCC2)CC1", "robust z score of cell number": "-32.7 ± 10"}, {"smiles": "O=C(O)C1=CCCN(CCON=C(c2ccccc2)c2ccccc2)C1", "robust z score of cell number": "-2.56 ± 1.8"}, {"smiles": "CCCC[C@@H](C=O)NC(=O)[C@H](CC(C)C)NC(=O)OCc1ccccc1", "note": "[Calpeptin]", "robust z score of cell number": "2.1 ± 2.5"}, {"smiles": "O=C1Nc2ccc(I)cc2/C1=C/c1cc(Br)c(O)c(Br)c1", "robust z score of cell number": "-307 ± 220"}, {"smiles": "Cc1nc2sccn2c(=O)c1CCN1CCC(=C(c2ccccc2)c2ccc(F)cc2)CC1", "robust z score of cell number": "-41.2 ± 27"}, {"smiles": "Cc1cc(I)ccc1Nc1c(C(=O)NOCC2CC2)cc(F)c(F)c1F", "robust z score of cell number": "-32.1 ± 10"}, {"smiles": "COc1ccc(NS(=O)(=O)c2ccc(I)cc2)cc1N1CCN(C)CC1", "robust z score of cell number": "4.68 ± 7.8"}, {"smiles": "CNC(=O)[C@H]1O[C@@H](n2cnc3c(NCc4cccc(I)c4)nc(Cl)nc32)[C@H](O)[C@@H]1O", "robust z score of cell number": "-42.1 ± 28"}, {"smiles": "C1CCC2(CC1)CCNCC2", "note": "[4,4-Pentamethylenepiperidine hydrochloride]", "robust z score of cell number": "-48.3 ± 69"}, {"smiles": "OC1CCC(Nc2nc(-c3ccccc3)nc3[nH]ccc23)CC1", "note": "(stereo not drawn)", "robust z score of cell number": "-5.34 ± 3.2"}, {"smiles": "CC[C@H](CO)Nc1nc(Nc2cccc(-c3ccccn3)c2)c2ncn(C(C)C)c2n1", "note": "[(R)-DRF053 dihydrochloride]", "robust z score of cell number": "-20.2 ± 23"}, {"smiles": "CNCCCC12CCC(c3ccccc31)c1ccccc12", "note": "[Maprotiline hydrochloride]", "robust z score of cell number": "-24.1 ± 4.1"}, {"smiles": "O=C(O)c1cc(=O)c2c(Cl)cc(Cl)cc2[nH]1", "note": "[5,7-Dichlorokynurenic acid]", "robust z score of cell number": "0.533 ± 2.7"}, {"smiles": "CCC(NC(C)C)C(O)c1ccc(O)c2[nH]c(=O)ccc12", "note": "(stereo not drawn) [Procaterol hydrochloride]", "robust z score of cell number": "-9.22 ± 1.6"}, {"smiles": "COCC(=O)O[C@]1(CCN(C)CCCc2nc3ccccc3[nH]2)CCc2cc(F)ccc2[C@@H]1C(C)C", "note": "[Mibefradil dihydrochloride]", "robust z score of cell number": "-41.1 ± 27"}, {"smiles": "Cc1cccc(C)c1NC(=O)C[N+](C)(C)C", "robust z score of cell number": "-5.62 ± 2.7"}, {"smiles": "c1cc(CN2CCCCC2)cc(OCCCNc2nc3ccccc3s2)c1", "note": "[Zolantidine dimaleate]", "robust z score of cell number": "-30.4 ± 17"}, {"smiles": "COc1cccc2c1C(=O)c1c(O)c3c(c(O)c1C2=O)C[C@@](O)(C(=O)CO)C[C@@H]3O[C@H]1C[C@H](N)[C@H](O)[C@H](C)O1", "note": "[Doxorubicin hydrochloride]", "robust z score of cell number": "-41.1 ± 27"}, {"smiles": "Cc1ccc(C(=O)Cn2c3c(sc2=N)CCCC3)cc1", "note": "[Pifithrin- α hydrobromide]", "robust z score of cell number": "-57.7 ± 34"}, {"smiles": "Nc1[nH]nc2nc3ccccc3nc12", "robust z score of cell number": "-2.79 ± 0.41"}, {"smiles": "O=C(c1ccc(OCCN2CCCCC2)cc1)c1c(-c2ccc(O)cc2)sc2cc(O)ccc12", "note": "[Raloxifene hydrochloride]", "robust z score of cell number": "-29.9 ± 15"}, {"smiles": "CC(=O)N1CCN(c2ccc(OCC3COC(Cn4ccnc4)(c4ccc(Cl)cc4Cl)O3)cc2)CC1", "note": "(stereo not drawn) [Ketoconazole]", "robust z score of cell number": "-61.4 ± 53"}, {"smiles": "O=C1CC2(CCCC2)CC(=O)N1CCCCN1CCN(c2ncccn2)CC1", "note": "[Buspirone hydrochloride]", "robust z score of cell number": "-2.72 ± 1.6"}, {"smiles": "CC[C@H](C)C(=O)O[C@H]1C[C@@H](C)C=C2C=C[C@H](C)[C@H](CC[C@@H]3C[C@@H](O)CC(=O)O3)[C@H]21", "note": "[Lovastatin]", "robust z score of cell number": "-128 ± 140"}, {"smiles": "O=C(O)c1cc(O)c2ccc(Cl)cc2n1", "note": "[7-Chlorokynurenic acid]", "robust z score of cell number": "17.7 ± 26"}, {"smiles": "CN1CCC(=C2c3ccccc3C=Cc3ccccc32)CC1", "note": "[Cyproheptadine hydrochloride]", "robust z score of cell number": "7.21 ± 10"}, {"smiles": "C[C@](N)(Cc1ccc(O)c(O)c1)C(=O)O", "note": "[L-(-)- α-Methyldopa]", "robust z score of cell number": "-4.62 ± 3.6"}, {"smiles": "CC(C)NC[C@H](O)COc1ccc(CC(N)=O)cc1", "note": "[S-(-)-Atenolol]", "robust z score of cell number": "-1.55 ± 4.4"}, {"smiles": "CN(C)CCCCSC(=N)N", "robust z score of cell number": "-4.36 ± 4.6"}, {"smiles": "COc1ccc(-c2ccc(=N)n(CCCC(=O)O)n2)cc1", "robust z score of cell number": "-19.6 ± 17"}, {"smiles": "CCCCC[C@H](O)/C=C/[C@H]1[C@H](O)CC(=O)[C@@H]1CCCCCCC(=O)O", "note": "[Alprostadil]", "robust z score of cell number": "-9.79 ± 6.7"}, {"smiles": "c1ccc(COCCCc2c[nH]cn2)cc1", "note": "[Proxyfan Oxalate]", "robust z score of cell number": "-11.2 ± 8.5"}, {"smiles": "Cc1ccc(O)c(N=Nc2ccccc2)n1", "robust z score of cell number": "-8.37 ± 3.6"}, {"smiles": "CCN1CCC[C@H]1CNC(=O)c1c(O)c(Cl)cc(Cl)c1OC", "note": "[Raclopride]", "robust z score of cell number": "1.8 ± 1.9"}, {"smiles": "COc1ccc(Nc2ncnc3ccc(OC)cc23)cc1", "note": "[MPMQ hydrochloride]", "robust z score of cell number": "-14.4 ± 7.8"}, {"smiles": "c1ccc(-c2[nH]ncc2-c2ccnc3ccccc23)nc1", "robust z score of cell number": "-6.6 ± 3.9"}, {"smiles": "C[C@@H](CN1CC(=O)NC(=O)C1)N1CC(=O)NC(=O)C1", "note": "[Dexrazoxane hydrochloride]", "robust z score of cell number": "-54.5 ± 40"}, {"smiles": "CCCCN1CCCC1CNC(=O)c1cc(C#N)c2ccccc2c1OC", "note": "(stereo not drawn) [Nafadotride]", "robust z score of cell number": "-52.1 ± 65"}]}]}
